The results in this text go back to US7786097B2, “Tricyclic compounds, compositions and methods” (Pfizer Inc., priority 2007, dated 2010).

A short description of the data set: Dissociation index (side-effect biomarker / anti-inflammatory biomarker). It is filed as in vivo, mice. The note with it: compound DI divided by prednisolone DI.

In the case of `Cc1c(NC(=O)c2ccc3c(c2)CC[C@@H]2C[C@@](O)(C(F)(F)F)CC[C@@]32Cc2ccccc2)ccc[n+]1[O-]` [Comparator G], the “Corrected Dissociation Index OC/TNFα (ED50)” value worked out at 0.35 and the “Corrected Dissociation Index OC/TNFα (ED80)” value was found to be 0.67.
